In PMC7819943, “Rice protein-binding microarrays: a tool to detect cis-acting elements near promoter regions in rice”:
The other results are listed elsewhere or left out.

Biological target: T1, OsSMF1 (Oryza sativa, UniProt Q6ZLB0 1-436)
T1 sequence: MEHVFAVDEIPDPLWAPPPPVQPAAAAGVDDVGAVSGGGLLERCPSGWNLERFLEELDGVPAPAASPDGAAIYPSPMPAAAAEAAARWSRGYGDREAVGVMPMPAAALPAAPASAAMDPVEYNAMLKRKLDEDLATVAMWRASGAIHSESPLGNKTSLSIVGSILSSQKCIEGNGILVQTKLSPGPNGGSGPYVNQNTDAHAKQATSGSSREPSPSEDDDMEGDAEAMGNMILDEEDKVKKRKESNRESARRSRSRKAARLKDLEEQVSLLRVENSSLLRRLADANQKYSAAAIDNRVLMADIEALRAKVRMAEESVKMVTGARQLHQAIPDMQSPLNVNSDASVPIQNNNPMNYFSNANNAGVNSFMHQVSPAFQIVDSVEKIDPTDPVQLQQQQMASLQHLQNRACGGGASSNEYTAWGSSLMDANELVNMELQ
Assay: protein-binding microarray (RPBM); PBS, 2% BSA, 51.3 ng/ul salmon testes DNA, 50 uM zinc acetate, 200 nM TF, 25 C, 1 h; high values mean tight binding
Conditions: protein: recombinant; tags: N-terminal polyhistidine and DsRed monomer fusion (pET32a); chain copies: 2; label: CyDye5-dUTP incorporated in the synthesized complementary strand; 3' TTTTT single-stranded linker to array surface; dsDNA, one strand shown
In short: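 A custom Agilent array was converted to double-stranded form by primer extension with Cy5-dUTP and blocked with 2% BSA. Protein at 200 nM in PBS with 2% BSA, salmon testes DNA and 50 µM zinc acetate was applied for 1 h at 25 °C, followed by washing. The proteins were polyhistidine–DsRed N-terminal fusions of transcription factors, expressed in E. coli BL21-CodonPlus and Ni–NTA-purified. The binding signal is per-feature fluorescence intensity (arbitrary units) from an Axon 4000B scanner.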

Row | Sequence | binding signal
1 | TCCCTTCGTCGTTCCGTCTGCCACGTACACCTTCCATCTACGGAGTCACCTAGTGCAG | 10800 fluorescence intensity (a.u.)
2 | AGAGGGGAGGAAGAAGGAAGGAGAGATGGGTCCGACATGTCGGAGTCACCTAGTGCAG | 26900 fluorescence intensity (a.u.)
3 | TGGCTTAGTGCTGGCGTGCTGCTACTTGTGTACTCCCTCCCGGAGTCACCTAGTGCAG | 3910 fluorescence intensity (a.u.)
4 | AATCGCCGGCCCACAGAAAACAGCGAATCACGCGACGCGACGGAGTCACCTAGTGCAG | 11900 fluorescence intensity (a.u.)
5 | GAGCTTCACTCCTTGGCGTTGGTGGCCATCACTGAGCTTACGGAGTCACCTAGTGCAG | 3480 fluorescence intensity (a.u.)
6 | TTGGAGTTGTAGAGGAGGAGGAGGTGGTGGTGGAGGTGGTCGGAGTCACCTAGTGCAG | 3600 fluorescence intensity (a.u.)
7 | CATGTAAGCCACATTGTATGCTTTAGCCACATTGATGTTGCGGAGTCACCTAGTGCAG | 3500 fluorescence intensity (a.u.)
8 | TGTCAAATTTTATAGCGTGCCACATGCAAGTCGATTATCTCGGAGTCACCTAGTGCAG | 3250 fluorescence intensity (a.u.)
9 | GTGGGAGACGTGGCCGCGTGCTGTCCCCGGGTTTACGAACCGGAGTCACCTAGTGCAG | 5140 fluorescence intensity (a.u.)
10 | TTTCAGAGTTTGAAGTTGGAAATCAACCTTGTTGTTCTCTCGGAGTCACCTAGTGCAG | 63100 fluorescence intensity (a.u.)
11 | TTCGATGTGGCAGCTGACTCAGCGTGGGACCCACGCGTCACGGAGTCACCTAGTGCAG | 7730 fluorescence intensity (a.u.)
12 | GCCGACGCCGTCGAGGTGACGTCGGCCGAGGAGGCGGCGGCGGAGTCACCTAGTGCAG | 4170 fluorescence intensity (a.u.)
13 | GAAGGAGAAGGAGAGGGGAGGGGCTGACGGGTGGGGTCCACGGAGTCACCTAGTGCAG | 4800 fluorescence intensity (a.u.)
14 | CAGATGAACCATGTGTGCCCCATGTGAGCTGTGTGTGCATCGGAGTCACCTAGTGCAG | 3340 fluorescence intensity (a.u.)
15 | CAACAACCTTGCTACTTGTACAGTCACCGTCAGGTGGGCCCGGAGTCACCTAGTGCAG | 9910 fluorescence intensity (a.u.)
16 | ATTAAGCTGATTTGTTGCTAAAGAATCAGAAAGATTCATACGGAGTCACCTAGTGCAG | 3190 fluorescence intensity (a.u.)
17 | TGCGTGTACCTCCGCGGGACATCACGTGGGCCTCGTGGGCCGGAGTCACCTAGTGCAG | 3690 fluorescence intensity (a.u.)
18 | CACTTCAATTTGTGCACCATGCATGACACTCAGATTATTCCGGAGTCACCTAGTGCAG | 3310 fluorescence intensity (a.u.)
19 | TCCTCCTCCTCCTGCTGGCCTGTCCGCCACGTCGCCGTCGCGGAGTCACCTAGTGCAG | 8500 fluorescence intensity (a.u.)
20 | ATGTTGCACTGCTGTTGATCCCGTGACCGGCCGTATGCCACGGAGTCACCTAGTGCAG | 3430 fluorescence intensity (a.u.)
21 | TTCACCCCTCGATTCGACCAATTCGAGTTGCTCGATTCCACGGAGTCACCTAGTGCAG | 9210 fluorescence intensity (a.u.)

Row | Sequence | binding signal
22 | ATGGAGGCTGCGGTCGGCTGGGCACGTGGTTGTCGTAGGGCGGAGTCACCTAGTGCAG | 3600 fluorescence intensity (a.u.)
23 | TGCGCCGCGCAGGCGTTTGGCCCTCATCGTGTCGATGCGTCGGAGTCACCTAGTGCAG | 3340 fluorescence intensity (a.u.)
24 | AAATTAGCAAATACTTAATTAATTATGCGCTAATGAACCGCGGAGTCACCTAGTGCAG | 31200 fluorescence intensity (a.u.)
25 | CCCGGCGCCCGCAGCCGCAAGCGCATCGCCAACGCCGTGCCGGAGTCACCTAGTGCAG | 3610 fluorescence intensity (a.u.)
26 | CCGTAATGAAGGCCGCTCATTATCGAAGCTGATATATACACGGAGTCACCTAGTGCAG | 24700 fluorescence intensity (a.u.)
27 | ACCGCCTATAAAACCACCACGTCGGACGTCGCCACCTCCGCGGAGTCACCTAGTGCAG | 7070 fluorescence intensity (a.u.)
28 | TAAATCCTACGTGGATCATCTACCGCCCATTATTGTACCTCGGAGTCACCTAGTGCAG | 14200 fluorescence intensity (a.u.)
29 | CAGTTCCTGTCGTTCGGCTGCTCCGACGTGACGTTCGCGCCGGAGTCACCTAGTGCAG | 4640 fluorescence intensity (a.u.)
30 | GGAAATGTGGTAGATGACTTGTACCATTTTCACATATTGCCGGAGTCACCTAGTGCAG | 3590 fluorescence intensity (a.u.)
31 | ACAGGTGAATGGCAAGGCGCTAGAACCATTAGGTTGGCAACGGAGTCACCTAGTGCAG | 3610 fluorescence intensity (a.u.)
32 | TACGAATTATGTAATTTGTTTTGTTATTAGTGTACATCTACGGAGTCACCTAGTGCAG | 4070 fluorescence intensity (a.u.)
33 | CCTGGTTTTAATCTACGTGGCGGCTGAGTTAATGTGGGACCGGAGTCACCTAGTGCAG | 13800 fluorescence intensity (a.u.)
34 | ACGGTGTTGTGACGTGGAGTTGTGCGTGTACAACTTTACTCGGAGTCACCTAGTGCAG | 14300 fluorescence intensity (a.u.)
35 | TTGAATTGCCATTACAAGCAGAAACTGGGTAGCCCAGCAGCGGAGTCACCTAGTGCAG | 14600 fluorescence intensity (a.u.)
36 | AGTGTGTGTATGACAGGTGGGACCAGATACTAATAGTGTACGGAGTCACCTAGTGCAG | 3400 fluorescence intensity (a.u.)
37 | AACTTCCTGGGGACCACCACCACCGGCGTCTGCGTCACCTCGGAGTCACCTAGTGCAG | 3160 fluorescence intensity (a.u.)
38 | TTGACAATGGTTGGGGTGGTGGTGGTGTTCGCGGTGATGACGGAGTCACCTAGTGCAG | 5330 fluorescence intensity (a.u.)
39 | CTGAACTTATTCAGATGATACGAACAGCGAGAAGCGTACGCGGAGTCACCTAGTGCAG | 3400 fluorescence intensity (a.u.)
40 | GGTGGCGAGTGCGGGAGACGGTGGTTGACGCACGTGACAACGGAGTCACCTAGTGCAG | 3210 fluorescence intensity (a.u.)
41 | AGAGCGAACGGCCGTCTGCCACGTCATTTTCGCCGCCCTCCGGAGTCACCTAGTGCAG | 21500 fluorescence intensity (a.u.)
42 | GTCTGCCCAGAAGGTGGAGGAGATCAGGTCCAGGATCCGTCGGAGTCACCTAGTGCAG | 3390 fluorescence intensity (a.u.)

Fetched one by one from above (three):
Row | Sequence | binding signal
33 | CCTGGTTTTAATCTACGTGGCGGCTGAGTTAATGTGGGACCGGAGTCACCTAGTGCAG | 13800 fluorescence intensity (a.u.)
31 | ACAGGTGAATGGCAAGGCGCTAGAACCATTAGGTTGGCAACGGAGTCACCTAGTGCAG | 3610 fluorescence intensity (a.u.)
36 | AGTGTGTGTATGACAGGTGGGACCAGATACTAATAGTGTACGGAGTCACCTAGTGCAG | 3400 fluorescence intensity (a.u.)
